Data as given in the supplement of paper PMC12823440, “Inhibitors supercharge kinase turnover through native proteolytic circuits” (Nature, 2025).
Structures can show the parent of a compound that is named as a salt. This is one part of the list. Hit calls seldom repeat between salt and free forms of one compound.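 Kinases were expressed as nanoluciferase fusions in K562 cells and luminescence was read every 4 h between 2 and 18 h as percent of control, DMSO set to 100% and a positive control to 0%. A time point counts as decreased when the signal drops significantly (2 sigma). The hit call is the authors' own, does not follow from the count of time points alone, and its rule is not shown.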

Sequences of proteins named here, by UniProt entry; tags and fusion partners are left off. A change or cut given only in a name is not applied to a line headed by its entry.
UniProt O96013: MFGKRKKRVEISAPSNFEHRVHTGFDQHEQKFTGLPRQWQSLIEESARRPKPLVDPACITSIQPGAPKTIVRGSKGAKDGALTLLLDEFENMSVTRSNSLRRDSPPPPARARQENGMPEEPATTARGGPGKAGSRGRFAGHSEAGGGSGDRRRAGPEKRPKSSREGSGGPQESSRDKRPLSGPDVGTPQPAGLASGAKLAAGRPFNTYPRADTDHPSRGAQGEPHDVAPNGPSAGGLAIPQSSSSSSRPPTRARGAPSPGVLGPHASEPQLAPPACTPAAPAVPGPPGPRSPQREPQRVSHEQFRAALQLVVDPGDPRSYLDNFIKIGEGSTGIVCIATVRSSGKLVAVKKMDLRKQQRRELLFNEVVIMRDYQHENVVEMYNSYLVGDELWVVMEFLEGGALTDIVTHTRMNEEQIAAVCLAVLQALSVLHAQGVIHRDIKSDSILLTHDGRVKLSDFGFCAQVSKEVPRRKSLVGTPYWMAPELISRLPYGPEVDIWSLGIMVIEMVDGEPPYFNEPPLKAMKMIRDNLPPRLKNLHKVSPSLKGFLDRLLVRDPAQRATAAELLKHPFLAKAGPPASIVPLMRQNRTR
UniProt P09619, whole entry: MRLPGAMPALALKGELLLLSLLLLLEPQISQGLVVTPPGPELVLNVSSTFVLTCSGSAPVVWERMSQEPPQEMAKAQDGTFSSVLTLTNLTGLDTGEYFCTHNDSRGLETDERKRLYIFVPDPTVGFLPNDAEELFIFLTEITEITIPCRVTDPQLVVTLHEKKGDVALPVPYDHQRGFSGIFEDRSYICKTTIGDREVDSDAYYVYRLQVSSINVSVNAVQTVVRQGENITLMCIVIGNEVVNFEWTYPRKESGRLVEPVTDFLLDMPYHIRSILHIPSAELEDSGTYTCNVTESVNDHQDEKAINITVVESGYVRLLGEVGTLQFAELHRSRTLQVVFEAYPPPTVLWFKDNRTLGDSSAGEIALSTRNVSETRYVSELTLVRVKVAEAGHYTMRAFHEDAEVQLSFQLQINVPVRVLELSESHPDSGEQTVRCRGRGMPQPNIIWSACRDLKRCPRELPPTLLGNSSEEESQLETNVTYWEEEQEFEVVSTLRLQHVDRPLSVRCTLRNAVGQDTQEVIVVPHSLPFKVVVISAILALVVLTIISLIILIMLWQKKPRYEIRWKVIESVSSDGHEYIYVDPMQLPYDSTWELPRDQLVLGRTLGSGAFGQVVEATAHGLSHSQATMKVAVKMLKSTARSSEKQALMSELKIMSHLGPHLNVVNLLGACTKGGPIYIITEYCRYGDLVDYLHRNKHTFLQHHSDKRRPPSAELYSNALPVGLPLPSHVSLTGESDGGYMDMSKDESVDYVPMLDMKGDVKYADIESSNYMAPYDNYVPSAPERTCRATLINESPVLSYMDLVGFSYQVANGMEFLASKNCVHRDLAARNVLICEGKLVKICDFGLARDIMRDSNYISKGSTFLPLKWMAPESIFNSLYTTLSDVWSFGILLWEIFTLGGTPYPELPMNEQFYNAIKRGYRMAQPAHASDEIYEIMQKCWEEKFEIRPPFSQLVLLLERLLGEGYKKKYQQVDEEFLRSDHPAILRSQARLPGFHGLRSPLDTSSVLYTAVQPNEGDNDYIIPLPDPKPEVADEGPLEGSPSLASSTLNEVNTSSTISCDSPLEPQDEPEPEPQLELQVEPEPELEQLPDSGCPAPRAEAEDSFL
UniProt O15530: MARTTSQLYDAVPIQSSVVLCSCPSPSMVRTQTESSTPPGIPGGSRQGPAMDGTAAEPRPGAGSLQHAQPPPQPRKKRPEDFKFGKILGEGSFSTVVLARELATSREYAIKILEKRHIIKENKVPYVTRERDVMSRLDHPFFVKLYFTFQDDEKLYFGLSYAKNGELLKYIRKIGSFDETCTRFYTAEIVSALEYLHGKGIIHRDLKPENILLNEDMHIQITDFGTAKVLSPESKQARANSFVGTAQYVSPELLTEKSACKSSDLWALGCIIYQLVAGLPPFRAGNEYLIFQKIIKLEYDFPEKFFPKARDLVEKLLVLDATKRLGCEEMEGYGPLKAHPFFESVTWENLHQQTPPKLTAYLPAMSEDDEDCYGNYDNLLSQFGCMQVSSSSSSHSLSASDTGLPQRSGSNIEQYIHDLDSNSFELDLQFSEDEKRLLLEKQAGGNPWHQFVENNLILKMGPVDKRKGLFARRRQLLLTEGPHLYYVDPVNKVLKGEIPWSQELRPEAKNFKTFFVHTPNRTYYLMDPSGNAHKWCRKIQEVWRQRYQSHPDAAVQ
UniProt P42356, whole entry, looked up: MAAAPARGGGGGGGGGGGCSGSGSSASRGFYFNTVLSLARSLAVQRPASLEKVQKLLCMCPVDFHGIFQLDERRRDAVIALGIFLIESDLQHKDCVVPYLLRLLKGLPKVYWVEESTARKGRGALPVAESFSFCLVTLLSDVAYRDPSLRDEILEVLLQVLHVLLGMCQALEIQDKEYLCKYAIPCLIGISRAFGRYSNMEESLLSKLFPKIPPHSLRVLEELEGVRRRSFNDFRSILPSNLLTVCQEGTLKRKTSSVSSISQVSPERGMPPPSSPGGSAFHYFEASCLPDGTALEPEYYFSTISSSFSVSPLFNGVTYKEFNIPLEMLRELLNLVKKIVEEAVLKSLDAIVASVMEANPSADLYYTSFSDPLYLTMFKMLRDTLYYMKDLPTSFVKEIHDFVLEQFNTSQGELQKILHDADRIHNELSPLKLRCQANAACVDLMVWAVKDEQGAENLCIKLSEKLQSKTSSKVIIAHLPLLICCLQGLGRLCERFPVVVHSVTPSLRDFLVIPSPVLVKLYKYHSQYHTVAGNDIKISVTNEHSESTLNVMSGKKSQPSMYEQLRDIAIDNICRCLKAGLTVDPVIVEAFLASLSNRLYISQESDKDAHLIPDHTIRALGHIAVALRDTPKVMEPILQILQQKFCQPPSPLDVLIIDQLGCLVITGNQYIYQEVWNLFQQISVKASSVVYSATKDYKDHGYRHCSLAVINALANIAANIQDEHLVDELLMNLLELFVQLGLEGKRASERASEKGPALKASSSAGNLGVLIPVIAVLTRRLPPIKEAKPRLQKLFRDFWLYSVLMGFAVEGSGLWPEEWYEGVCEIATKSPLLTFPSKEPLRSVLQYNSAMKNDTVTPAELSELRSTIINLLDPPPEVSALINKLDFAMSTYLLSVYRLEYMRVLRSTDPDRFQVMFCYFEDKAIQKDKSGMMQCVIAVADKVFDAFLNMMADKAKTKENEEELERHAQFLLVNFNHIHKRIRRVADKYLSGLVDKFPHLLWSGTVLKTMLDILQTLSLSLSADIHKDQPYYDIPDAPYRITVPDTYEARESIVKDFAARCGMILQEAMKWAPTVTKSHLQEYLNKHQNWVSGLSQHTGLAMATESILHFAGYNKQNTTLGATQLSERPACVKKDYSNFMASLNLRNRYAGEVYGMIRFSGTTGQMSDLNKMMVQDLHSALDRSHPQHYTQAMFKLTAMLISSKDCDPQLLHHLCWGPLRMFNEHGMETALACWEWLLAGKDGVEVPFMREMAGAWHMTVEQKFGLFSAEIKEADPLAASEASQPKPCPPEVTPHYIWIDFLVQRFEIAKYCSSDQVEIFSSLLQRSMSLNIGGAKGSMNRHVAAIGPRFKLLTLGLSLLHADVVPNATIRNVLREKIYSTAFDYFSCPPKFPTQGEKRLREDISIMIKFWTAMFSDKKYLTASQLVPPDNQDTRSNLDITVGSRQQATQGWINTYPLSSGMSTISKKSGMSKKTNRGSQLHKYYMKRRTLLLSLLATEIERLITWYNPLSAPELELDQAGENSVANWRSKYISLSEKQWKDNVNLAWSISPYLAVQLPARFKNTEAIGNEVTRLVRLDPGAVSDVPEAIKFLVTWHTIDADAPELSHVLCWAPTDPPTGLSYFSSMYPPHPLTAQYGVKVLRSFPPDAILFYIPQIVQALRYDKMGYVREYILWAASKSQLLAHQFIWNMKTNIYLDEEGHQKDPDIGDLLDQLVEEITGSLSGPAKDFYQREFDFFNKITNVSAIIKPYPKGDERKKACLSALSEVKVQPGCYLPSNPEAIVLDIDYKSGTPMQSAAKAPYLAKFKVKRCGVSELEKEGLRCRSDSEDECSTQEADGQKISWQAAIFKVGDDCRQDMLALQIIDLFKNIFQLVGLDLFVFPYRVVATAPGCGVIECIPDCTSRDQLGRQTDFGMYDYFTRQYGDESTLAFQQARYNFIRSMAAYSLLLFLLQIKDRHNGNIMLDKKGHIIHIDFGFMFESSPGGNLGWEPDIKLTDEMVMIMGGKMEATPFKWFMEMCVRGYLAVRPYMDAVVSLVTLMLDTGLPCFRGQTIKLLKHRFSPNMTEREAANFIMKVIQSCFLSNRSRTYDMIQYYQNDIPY
UniProt Q05397, whole entry, looked up: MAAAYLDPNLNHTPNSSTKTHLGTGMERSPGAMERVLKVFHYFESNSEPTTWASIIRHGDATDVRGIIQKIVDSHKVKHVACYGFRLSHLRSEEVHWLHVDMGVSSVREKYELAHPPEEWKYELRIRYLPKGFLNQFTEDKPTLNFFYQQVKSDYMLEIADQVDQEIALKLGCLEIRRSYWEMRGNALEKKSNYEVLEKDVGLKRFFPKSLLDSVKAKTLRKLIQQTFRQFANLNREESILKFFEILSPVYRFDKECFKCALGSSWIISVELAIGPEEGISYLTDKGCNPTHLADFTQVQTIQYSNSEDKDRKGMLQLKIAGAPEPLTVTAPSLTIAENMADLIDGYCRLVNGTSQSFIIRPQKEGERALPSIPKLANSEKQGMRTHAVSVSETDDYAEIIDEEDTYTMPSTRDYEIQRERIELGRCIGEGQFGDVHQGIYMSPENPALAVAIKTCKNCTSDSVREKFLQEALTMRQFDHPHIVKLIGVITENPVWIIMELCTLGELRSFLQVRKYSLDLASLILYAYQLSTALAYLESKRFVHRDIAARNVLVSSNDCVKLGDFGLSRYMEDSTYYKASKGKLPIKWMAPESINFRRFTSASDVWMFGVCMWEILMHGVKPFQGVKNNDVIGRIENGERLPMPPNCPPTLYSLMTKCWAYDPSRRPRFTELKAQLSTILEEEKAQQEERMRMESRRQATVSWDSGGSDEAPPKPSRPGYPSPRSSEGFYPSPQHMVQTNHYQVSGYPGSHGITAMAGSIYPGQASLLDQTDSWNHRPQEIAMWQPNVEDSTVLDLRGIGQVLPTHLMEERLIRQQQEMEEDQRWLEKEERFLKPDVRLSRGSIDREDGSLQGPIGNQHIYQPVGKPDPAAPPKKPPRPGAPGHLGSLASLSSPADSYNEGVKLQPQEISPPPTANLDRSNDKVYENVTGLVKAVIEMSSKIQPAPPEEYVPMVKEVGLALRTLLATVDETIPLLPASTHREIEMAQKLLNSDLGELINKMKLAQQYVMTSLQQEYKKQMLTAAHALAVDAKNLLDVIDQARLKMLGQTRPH
UniProt Q14289, whole entry, looked up: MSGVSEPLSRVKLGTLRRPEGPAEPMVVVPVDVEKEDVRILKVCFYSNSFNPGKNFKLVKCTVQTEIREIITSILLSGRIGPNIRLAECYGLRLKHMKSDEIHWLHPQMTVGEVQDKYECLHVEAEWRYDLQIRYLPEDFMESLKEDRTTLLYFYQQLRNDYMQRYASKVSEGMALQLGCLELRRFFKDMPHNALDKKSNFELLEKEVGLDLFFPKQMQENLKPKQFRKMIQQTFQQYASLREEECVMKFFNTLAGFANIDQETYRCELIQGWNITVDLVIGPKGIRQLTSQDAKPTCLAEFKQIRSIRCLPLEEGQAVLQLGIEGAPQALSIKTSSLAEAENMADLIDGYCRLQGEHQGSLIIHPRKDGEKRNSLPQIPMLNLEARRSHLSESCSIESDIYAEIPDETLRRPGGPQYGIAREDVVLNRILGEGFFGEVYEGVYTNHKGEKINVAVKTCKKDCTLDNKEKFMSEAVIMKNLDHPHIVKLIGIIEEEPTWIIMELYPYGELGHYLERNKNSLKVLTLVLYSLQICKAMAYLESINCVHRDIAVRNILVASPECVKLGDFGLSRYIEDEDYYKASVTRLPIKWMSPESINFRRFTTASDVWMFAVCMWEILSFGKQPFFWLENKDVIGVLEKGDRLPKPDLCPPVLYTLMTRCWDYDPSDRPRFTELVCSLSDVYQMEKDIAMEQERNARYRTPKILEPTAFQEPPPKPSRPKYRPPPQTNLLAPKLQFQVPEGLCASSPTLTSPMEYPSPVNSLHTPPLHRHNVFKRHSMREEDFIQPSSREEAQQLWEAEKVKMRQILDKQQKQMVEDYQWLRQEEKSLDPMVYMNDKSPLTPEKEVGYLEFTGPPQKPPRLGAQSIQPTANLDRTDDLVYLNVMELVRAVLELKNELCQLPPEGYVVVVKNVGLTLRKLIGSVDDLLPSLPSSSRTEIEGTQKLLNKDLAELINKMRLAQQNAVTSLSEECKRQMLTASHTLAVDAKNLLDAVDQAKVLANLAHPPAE

Experiments:
Assay in all cases: kinase-Nluc reporter destabilization hit call (1 = scored as downregulated) (binary); higher = compound decreases kinase abundance
Settings in all cases: K562; 2-18 h
[1] = target: MAPK1 (UniProt P28482)
[2] = target: MAPK4 (UniProt P31152)
[3] = target: MAPKAPK2 (UniProt P49137)
[4] = target: MKNK1 (UniProt Q9BUB5)
[5] = target: NTRK2 (UniProt Q16620)
[6] = target: NTRK3 (UniProt Q16288)
[7] = target: PAK4 (UniProt O96013)
[8] = target: PBK (UniProt Q96KB5)
[9] = target: PDGFRB (UniProt P09619)
[10] = target: PDK1 (UniProt Q15118)
[11] = target: PDPK1 (UniProt O15530)
[12] = target: PIK4CA (UniProt P42356)
[13] = target: PIK4CB (UniProt Q9UBF8)
[14] = target: PLK1 (UniProt P53350)
[15] = target: PRKAA1 (UniProt Q13131)
[16] = target: PRKCA (UniProt P17252)
[17] = target: PTK2 (UniProt Q05397)
[18] = target: PTK2B (UniProt Q14289)
[19] = target: RAF1 (UniProt P04049)
[20] = target: RAF1_S257L (clone: RAF1_mut) (UniProt P04049)

Measured: kinase-Nluc reporter destabilization hit call

CS(=O)(=O)c1ccc(-c2noc(C(F)(F)F)c2-c2ccccc2)cc1 (10 µM)
inactive: [1] 0 | [2] 0 | [3] 0 | [4] 0 | [5] 0 | [6] 0 | [7] 0 | [8] 0 | [9] 0 | [10] 0 | [11] 0 | [12] 0 | [13] 0 | [14] 0 | [15] 0 | [16] 0 | [17] 0 | [18] 0 | [19] 0 | [20] 0

CN(CCNc1ccc2ncc(-c3ccc(C(N)=O)cc3)n2n1)C(=O)OC(C)(C)C (10 µM)
inactive: [1] 0 | [2] 0 | [3] 0 | [4] 0 | [5] 0 | [6] 0 | [7] 0 | [8] 0 | [9] 0 | [10] 0 | [11] 0 | [12] 0 | [13] 0 | [14] 0 | [15] 0 | [16] 0 | [17] 0 | [18] 0 | [19] 0 | [20] 0

O=c1cc(O)cc(/C=C/c2ccc(O)c(O)c2)o1 [Hispidin] (10 µM)
inactive: [1] 0 | [2] 0 | [3] 0 | [4] 0 | [5] 0 | [6] 0 | [7] 0 | [8] 0 | [9] 0 | [10] 0 | [11] 0 | [12] 0 | [13] 0 | [14] 0 | [15] 0 | [16] 0 | [17] 0 | [18] 0 | [19] 0 | [20] 0

CC(=O)c1c(C)c2cnc(Nc3ccc(N4CCN(CCCCNC(=O)COc5cccc6c5C(=O)N(C5CCC(=O)NC5=O)C6=O)CC4)cn3)nc2n(C2CCCC2)c1=O (stereo not given) (10 µM)
inactive: [1] 0 | [2] 0 | [3] 0 | [4] 0 | [5] 0 | [6] 0 | [7] 0 | [8] 0 | [9] 0 | [10] 0 | [11] 0 | [12] 0 | [13] 0 | [14] 0 | [15] 0 | [16] 0 | [17] 0 | [18] 0 | [19] 0 | [20] 0

Reprinted at random: two records from the list, in no set order.
CC(=O)c1c(C)c2cnc(Nc3ccc(N4CCN(CCCCNC(=O)COc5cccc6c5C(=O)N(C5CCC(=O)NC5=O)C6=O)CC4)cn3)nc2n(C2CCCC2)c1=O (stereo not given) (10 µM)
inactive: [1] 0 | [2] 0 | [3] 0 | [4] 0 | [5] 0 | [6] 0 | [7] 0 | [8] 0 | [9] 0 | [10] 0 | [11] 0 | [12] 0 | [13] 0 | [14] 0 | [15] 0 | [16] 0 | [17] 0 | [18] 0 | [19] 0 | [20] 0

O=c1cc(O)cc(/C=C/c2ccc(O)c(O)c2)o1 [Hispidin] (10 µM)
inactive: [1] 0 | [2] 0 | [3] 0 | [4] 0 | [5] 0 | [6] 0 | [7] 0 | [8] 0 | [9] 0 | [10] 0 | [11] 0 | [12] 0 | [13] 0 | [14] 0 | [15] 0 | [16] 0 | [17] 0 | [18] 0 | [19] 0 | [20] 0

(cont.)

COc1ccc2c(c1O)OC(C)(C)c1c-2ccc2c1C(=O)N(c1ccc(C(=O)c3ccccc3)cc1)C2=O [Ampkinone] (10 µM)
inactive: [1] 0 | [2] 0 | [3] 0 | [4] 0 | [5] 0 | [6] 0 | [7] 0 | [8] 0 | [9] 0 | [10] 0 | [11] 0 | [12] 0 | [13] 0 | [14] 0 | [15] 0 | [16] 0 | [17] 0 | [18] 0 | [19] 0 | [20] 0

COc1ccc([C@H]2c3[nH]c4ccc(Cl)cc4c3CCN2C(=O)Oc2ccc(Cl)cc2)cc1 (2.5 µM)
inactive: [1] 0 | [2] 0 | [3] 0 | [4] 0 | [5] 0 | [6] 0 | [7] 0 | [8] 0 | [9] 0 | [10] 0 | [11] 0 | [12] 0 | [13] 0 | [14] 0 | [15] 0 | [16] 0 | [17] 0 | [18] 0 | [19] 0 | [20] 0

Cn1cc(-c2ccc(CNc3cc(-c4cnc5cc(OCCCN6CCCC6)ccn45)ncn3)cc2)cn1 (10 µM)
inactive: [1] 0 | [2] 0 | [3] 0 | [4] 0 | [5] 0 | [6] 0 | [7] 0 | [8] 0 | [9] 0 | [10] 0 | [11] 0 | [12] 0 | [13] 0 | [14] 0 | [15] 0 | [16] 0 | [17] 0 | [18] 0 | [19] 0 | [20] 0

Cc1ccc(Oc2nc3cc(-c4ccc5c(ccn5C)c4)c(Cl)cc3[nH]2)cc1C(=O)O (10 µM)
inactive: [1] 0 | [2] 0 | [3] 0 | [4] 0 | [5] 0 | [6] 0 | [7] 0 | [8] 0 | [9] 0 | [10] 0 | [11] 0 | [12] 0 | [13] 0 | [14] 0 | [15] 0 | [16] 0 | [17] 0 | [18] 0 | [19] 0 | [20] 0

CCOc1cc(C(=O)N2CCC(N3CCN(C)CC3)CC2)ccc1Nc1ncc2c(n1)N(C1CCCC1)c1ccccc1C(=O)N2C (10 µM)
inactive: [1] 0 | [2] 0 | [3] 0 | [4] 0 | [5] 0 | [6] 0 | [7] 0 | [8] 0 | [9] 0 | [10] 0 | [11] 0 | [12] 0 | [13] 0 | [14] 0 | [15] 0 | [16] 0 | [17] 0 | [18] 0 | [19] 0 | [20] 0

COc1cc(F)c(F)c(Nc2ccc(I)cc2F)c1NS(=O)(=O)C1(C[C@H](O)CO)CC1 [Refametinib] (10 µM)
inactive: [1] 0 | [2] 0 | [3] 0 | [4] 0 | [5] 0 | [6] 0 | [7] 0 | [8] 0 | [9] 0 | [10] 0 | [11] 0 | [12] 0 | [13] 0 | [14] 0 | [15] 0 | [16] 0 | [17] 0 | [18] 0 | [19] 0 | [20] 0

Cc1cc(O)c(C(C)C)cc1N=O [Poloxime] (10 µM)
inactive: [1] 0 | [2] 0 | [3] 0 | [4] 0 | [5] 0 | [6] 0 | [7] 0 | [8] 0 | [9] 0 | [10] 0 | [11] 0 | [12] 0 | [13] 0 | [14] 0 | [15] 0 | [16] 0 | [17] 0 | [18] 0 | [19] 0 | [20] 0

Cc1ccc2nc(NC(=O)CSc3nc4c(c(=O)n3-c3ccccc3)SCC4)sc2c1 (2 µM)
inactive: [1] 0 | [2] 0 | [3] 0 | [4] 0 | [5] 0 | [6] 0 | [7] 0 | [8] 0 | [9] 0 | [10] 0 | [11] 0 | [12] 0 | [13] 0 | [14] 0 | [15] 0 | [16] 0 | [17] 0 | [18] 0 | [19] 0 | [20] 0

C#CCN(C)C(=O)CCNc1nc(N2CCN(C(=O)C=C)CC2)c2cc(Cl)c(-c3c(O)cccc3F)c(F)c2n1 [ARS-1323-alkyne] (2.5 µM)
inactive: [1] 0 | [2] 0 | [3] 0 | [4] 0 | [5] 0 | [6] 0 | [7] 0 | [8] 0 | [9] 0 | [10] 0 | [11] 0 | [12] 0 | [13] 0 | [14] 0 | [15] 0 | [16] 0 | [17] 0 | [18] 0 | [19] 0 | [20] 0

Nc1ncnc2c1c(-c1ccc(Oc3ccccc3)cc1)nn2C1CCNCC1 [N-piperidine Ibrutinib (hydrochloride)] (10 µM)
inactive: [1] 0 | [2] 0 | [3] 0 | [4] 0 | [5] 0 | [6] 0 | [7] 0 | [8] 0 | [9] 0 | [10] 0 | [11] 0 | [12] 0 | [13] 0 | [14] 0 | [15] 0 | [16] 0 | [17] 0 | [18] 0 | [19] 0 | [20] 0

Fc1ccc(-c2nc(-c3ccccc3F)[nH]c2-c2ccncc2)cc1 (2.5 µM)
inactive: [1] 0 | [2] 0 | [3] 0 | [4] 0 | [5] 0 | [6] 0 | [7] 0 | [8] 0 | [9] 0 | [10] 0 | [11] 0 | [12] 0 | [13] 0 | [14] 0 | [15] 0 | [16] 0 | [17] 0 | [18] 0 | [19] 0 | [20] 0

O=C(NCCCNc1nc(Nc2cccc(NC(=O)N3CCCC3)c2)ncc1I)c1cccs1 (2.5 µM)
inactive: [1] 0 | [2] 0 | [3] 0 | [4] 0 | [5] 0 | [6] 0 | [7] 0 | [8] 0 | [9] 0 | [10] 0 | [11] 0 | [12] 0 | [13] 0 | [14] 0 | [15] 0 | [16] 0 | [17] 0 | [18] 0 | [19] 0 | [20] 0

Cc1cc(NC(=O)c2cccc(NC(=O)/C=C/CN(C)C)c2)ccc1Nc1nccc(-c2cccnc2)n1 (10 µM)
inactive: [1] 0 | [2] 0 | [3] 0 | [4] 0 | [5] 0 | [6] 0 | [7] 0 | [8] 0 | [9] 0 | [10] 0 | [11] 0 | [12] 0 | [13] 0 | [14] 0 | [15] 0 | [16] 0 | [17] 0 | [18] 0 | [19] 0 | [20] 0
